Laboratory results taken from article PMC10249783.

Sequences of proteins named here, by UniProt entry; tags and fusion partners are left off. A change or cut given only in a name is not applied to a line headed by its entry.
UniProt P11166: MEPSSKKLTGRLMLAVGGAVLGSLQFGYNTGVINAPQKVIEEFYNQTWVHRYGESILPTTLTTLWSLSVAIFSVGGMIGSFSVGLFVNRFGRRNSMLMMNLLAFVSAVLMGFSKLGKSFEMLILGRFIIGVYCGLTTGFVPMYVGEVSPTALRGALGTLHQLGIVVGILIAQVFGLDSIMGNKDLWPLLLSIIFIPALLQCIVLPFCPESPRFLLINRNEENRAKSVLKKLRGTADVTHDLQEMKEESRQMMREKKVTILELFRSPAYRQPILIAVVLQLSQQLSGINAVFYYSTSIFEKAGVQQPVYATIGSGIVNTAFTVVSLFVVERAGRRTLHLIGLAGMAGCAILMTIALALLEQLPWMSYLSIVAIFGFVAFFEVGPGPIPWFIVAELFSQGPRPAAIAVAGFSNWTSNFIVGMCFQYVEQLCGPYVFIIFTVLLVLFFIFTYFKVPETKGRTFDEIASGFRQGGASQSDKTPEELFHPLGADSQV
UniProt P35613: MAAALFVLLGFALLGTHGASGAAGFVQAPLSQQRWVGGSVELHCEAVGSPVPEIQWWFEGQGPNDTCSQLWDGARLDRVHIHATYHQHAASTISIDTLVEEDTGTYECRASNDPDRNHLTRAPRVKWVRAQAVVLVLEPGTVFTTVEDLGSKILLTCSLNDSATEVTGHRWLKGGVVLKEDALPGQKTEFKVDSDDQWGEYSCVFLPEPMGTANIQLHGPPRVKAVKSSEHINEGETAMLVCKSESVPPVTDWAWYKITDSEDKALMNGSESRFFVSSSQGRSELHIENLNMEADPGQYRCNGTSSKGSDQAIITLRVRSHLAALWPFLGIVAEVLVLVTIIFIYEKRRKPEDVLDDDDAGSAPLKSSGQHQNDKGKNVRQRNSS

How the values were obtained:
[1] = molecular target: Glut1 (endogenous, HaCaT) (human (endogenous in HaCaT)) (UniProt P11166); assay: co-IP; endogenous proteins in HaCaT cell extract; NP40 lysate; immunoprecipitation with anti-CD147 or anti-Glut1 antibody, IgG as control, protein A/G agarose, 4 °C; immunoblot
SLC2A1-Flag = SLC2A1-Flag (UniProt P11166); assay: co-IP; 293T cells co-transfected with CD147-Myc and SLC2A1-Flag; NP40 lysate; immunoprecipitation with anti-c-Myc or anti-Flag antibody, protein A/G agarose, 4 °C; immunoblot
[2] = molecular target: CD147 (endogenous, HaCaT) (human (endogenous in HaCaT)) (UniProt P35613); assay: co-IP; endogenous proteins in HaCaT cell extract; NP40 lysate; immunoprecipitation with anti-CD147 or anti-Glut1 antibody, IgG as control, protein A/G agarose, 4 °C; immunoblot
CD147-Myc = CD147-Myc (UniProt P35613); assay: co-IP; 293T cells co-transfected with CD147-Myc and SLC2A1-Flag; NP40 lysate; immunoprecipitation with anti-c-Myc or anti-Flag antibody, protein A/G agarose, 4 °C; immunoblot

CD147 (endogenous, HaCaT) (from UniProt P35613-2)
binding [1]: binds

CD147-Myc (from UniProt P35613-2)
binding (SLC2A1-Flag): binds

Glut1 (endogenous, HaCaT) (from UniProt P11166 1-492)
binding [2]: binds

SLC2A1-Flag (from UniProt P11166 1-492)
binding (CD147-Myc): binds

Results are given in words; binding and its absence hold for the method and conditions named. Binding seen in cells or lysates may run through a third protein. A result given as binding can be weak or reduced; the word gives no strength.
